Data published in paper PMC5540925.

What was measured:
[1] = biological target: GST-Kaiso (UniProt Q86T24); experiment: EMSA; conditions: Nonradioactive EMSA, 6-FAM probes, temperature not stated, commercial protein, protein details: GST, label: 6-FAM (probe), unlabelled as competitor
[2] = biological target: T1, Kaiso (overexpressed in HUVEC, nuclear extract) (UniProt Q86T24); experiment: EMSA; conditions: Nonradioactive EMSA, 6-FAM probes, temperature not stated, protein in an extract, label: 6-FAM (probe), unlabelled as competitor
T1 sequence (looked up, limits assumed): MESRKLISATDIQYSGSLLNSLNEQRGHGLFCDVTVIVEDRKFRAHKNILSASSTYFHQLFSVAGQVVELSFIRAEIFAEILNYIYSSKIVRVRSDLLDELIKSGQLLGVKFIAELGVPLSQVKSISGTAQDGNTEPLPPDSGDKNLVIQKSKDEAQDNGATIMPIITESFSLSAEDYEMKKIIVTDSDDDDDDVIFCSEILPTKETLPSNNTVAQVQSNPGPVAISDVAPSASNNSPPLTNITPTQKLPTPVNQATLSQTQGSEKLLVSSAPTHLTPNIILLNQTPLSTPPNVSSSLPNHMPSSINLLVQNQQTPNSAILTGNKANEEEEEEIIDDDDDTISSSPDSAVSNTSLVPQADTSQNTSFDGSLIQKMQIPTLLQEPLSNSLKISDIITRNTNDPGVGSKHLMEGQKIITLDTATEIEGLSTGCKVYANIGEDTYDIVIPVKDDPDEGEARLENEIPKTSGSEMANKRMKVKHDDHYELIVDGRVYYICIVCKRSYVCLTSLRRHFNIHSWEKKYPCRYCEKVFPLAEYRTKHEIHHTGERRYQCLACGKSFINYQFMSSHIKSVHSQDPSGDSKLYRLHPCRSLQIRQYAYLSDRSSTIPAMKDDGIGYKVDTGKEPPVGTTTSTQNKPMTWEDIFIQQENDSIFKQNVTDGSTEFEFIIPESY

[3] = biological target: GST-Kaiso (UniProt Q86T24); experiment: competition with a labelled probe; conditions: Nonradioactive EMSA, 6-FAM probes, temperature not stated, commercial protein, protein details: GST, label: 6-FAM (probe), unlabelled as competitor
[4] = biological target: T1, Kaiso (overexpressed in HUVEC, nuclear extract); experiment: competition with a labelled probe; conditions: Nonradioactive EMSA, 6-FAM probes, temperature not stated, protein in an extract, label: 6-FAM (probe), unlabelled as competitor
[5] = unlabelled competitor vs FAM-N1
[6] = unlabelled competitor vs FAM-N5
[7] = unlabelled competitor vs FAM-N7

Row | Sequence | binding result [1] | binding result [2] | binding result [3, 5] | binding result [4, 5] | binding result ([1]; supershift with anti-GST) | binding result ([2]; supershift with anti-Kaiso) | binding result [3, 6] | binding result [4, 6] | binding result [3, 7] | binding result [4, 7]
1 | AAATTTCCAACATCTCATGC (double strand) [BCL2 -193 KBS mutant probe (3709-MU)] | no binding | no binding | no binding | no binding | – | – | – | – | – | –
2 | AAATTTCCTGCATCTCATGC (double strand) [BCL2 -193 KBS WT probe (3709-WT)] | – | – | binds | binds | binds | binds | – | – | – | –
3 | GGGTCATCCAATGAGAGAGC (double strand) [BIK -75 KBS mutant probe] | no binding | no binding | – | – | – | – | no binding | no binding | – | –
4 | GGGTCATCCTGTGAGAGAGC (double strand) [BIK -75 KBS WT probe] | – | – | – | – | binds | binds | binds | binds | – | –
5 | TAGGGGTCCAGTCATATGCT (double strand) [BIK -36 KBS WT probe] | – | – | – | – | binds | binds | – | – | binds | binds
6 | TAGGGGTGAAGTCATATGCT (double strand) [BIK -36 KBS mutant probe] | no binding | no binding | – | – | – | – | – | – | no binding | no binding

The exact form of at least one protein or probe is not confirmed. A negative result means that nothing was seen under these conditions. For part of these data: At least one verdict rests on a figure or table, not on a statement of the authors. For part of these data: Where cells or extracts were used, other partners may take part. For part of these data: Where a protein sequence is shown, tags need not be part of it.
